In patent US9090670B2, “Use of peptides for promoting wound healing” (priority 2008, dated 2015):
Entries after “also recorded” stand apart in the source; their conditions may differ. Not every detail of the peptide structures is certain; ends, links or a residue may be inferred. Where no end group is shown, it is not given here.

Experiments:
[1] = tested on: human buccal epithelial cell line TR146; assay: In vitro scratch wound closure assay on an epithelial monolayer; format: cell-based; conditions: for induction of wound closure (in words): synthesized peptides in SFM, vs control
Method: The human buccal epithelial cell line TR146 (Rupniak et al; J Natl Cancer Inst. 1985 October: 75(4):621-35) was kindly provided by Cancer Research UK. Cells were grown in Dulbecco's modified Eagle medium with 4.5 g/l glucose (Invitrogen), 10% FCS (HyClone) and 100 U/ml penicillin, […] streptomycin, and 250 ng/ml amphotericinB (Antibiotic antimyotic solution, Sigma,), at 37° C., 95% humidity and 5% CO2. Cells were maintained until near confluence and then briefly treated with 0.25% trypsin-EDTA 1× (Invitrogen) to detach them, counted in a hepacytometer and seeded into new flasks or multi-well plates at the required cell density of about 1.5×10^5 cells/well. Wound assays were performed as previously described ([…] et al., 1993, J Cell Sci. 106 (Pt 3):869-78). In brief, cells were grown in 12-well plates until confluence, and then were serum deprived for 24 hours in keratinocyte serum free medium (SFM (Invitrogen)). In each well a scratch was made in the cellular monolayer using a sterile tip. The wounded monolayer was washed with SFM to remove cellular debris, and the following conditions were applied: • (i) Whole saliva and salivary secretions applied in 30% (v/v) in SFM. As a negative control 30% (v/v) saliva buffer was used. • (ii) (ii) rhEGF (Invitrogen) as a positive control • (iii) rp-HPLC fractions containing salivary proteins; • (iv) synthetic peptides: the experiments with isolated proteins and synthetic peptides were performed in full SFM. The width of the wound area was determined microscopically immediately after wound creation and at approximately 16 hours after wounding. The relative closure was calculated by relating the closure to that of the negative control.

[2] = tested on: human buccal epithelial cell line TR146; assay: In vitro wound closure with inhibitors of EGFR, p38 MAPK and ERK1/2; format: cell-based
Method: Wound assays were performed as previously described (Matthay et al., 1993, J Cell Sci. 106 (Pt 3):869-78). In brief, cells were grown in 12-well plates until confluence, and then were serum deprived for 24 hours in keratinocyte serum free medium (SFM (Invitrogen)). In each well a scratch was made in the cellular monolayer using a sterile tip. The wounded monolayer was washed with SFM to remove cellular debris, and the following conditions were applied: • (i) Whole saliva and salivary secretions applied in 30% (v/v) in SFM. As a negative control 30% (v/v) saliva buffer was used. • (ii) (ii) rhEGF (Invitrogen) as a positive control • (iii) rp-HPLC fractions containing salivary proteins; • (iv) synthetic peptides: the experiments with isolated proteins and synthetic peptides were performed in full SFM.
For inhibitor studies; directly after wounding cells were exposed to inhibitors of ERK1/2 (U0126, 5 μM, LC Laboratories), EGFR (AG1478, 1 μM, Calbiochem), and p38 MAPK (SB203580, 5 μM; LC Laboratories). Experiments were done in quadruplicate and analyzed using One-way ANOVA to determine significance with additional LSD post hoc test, P<0.05 was considered significant.

Compound	induction of wound closure (in words) [1]	induced wound closure with EGFR blocked ([2]; AG1478 1 μM)	pathway dependence of induced wound closure ([2]; SB203580 5 μM (p38 MAPK), U0126 5 μM (ERK1/2), FIG. 2)	optimal concentration for wound closure ([1]; concentrations of 1, 5, 10, 30 and 50 μg/ml tested) [µg/mL]	relative wound closure ([1]; concentration of 1*10-3 μM, FIG. 4, 1 = no peptide added)
CC(C)C[C@@H](NC(=O)[C@@H](Cc1ccc(O)cc1)NC(=O)[C@@H](CC(N)=O)NC(=O)[C@@H](CO)NC(=O)CNC(=O)[C@@H](Cc1ccc(O)cc1)NC(=O)[C@@H](CC(=O)O)NC(=O)CNC(=O)[C@@H](Cc1ccc(O)cc1)NC(=O)[C@@H](Cc1ccccc1)NC(=O)[C@H]1CCCN1C(=O)[C@@H](Cc1ccccc1)NC(=O)[C@@H](CCC(=O)O)NC(=O)[C@@H](CCCNC(=N)N)NC(=O)[C@@H](Cc1c[nH]cn1)NC(=O)[C@@H](CO)NC(=O)[C@@H](Cc1c[nH]cn1)NC(=O)[C@@H](Cc1c[nH]cn1)NC(=O)[C@@H](CCCCN)NC(=O)[C@@H](CCC(=O)O)NC(=O)[C@@H](Cc1c[nH]cn1)NC(=O)[C@@H](Cc1ccccc1)NC(=O)[C@@H](CCCCN)NC(=O)[C@H](N)CCCNC(=N)N)C(=O)N[C@H](Cc1ccc(O)cc1)C(=O)N[C@H](CC(=O)O)C(=O)N[C@H](CC(N)=O)C(=O)O [D-Histatin 2, reference compound]	do not; also recorded: does not exhibit wound closure induction	–	–	–	–
CC(C)C[C@H](NC(=O)[C@H](Cc1ccc(O)cc1)NC(=O)[C@H](CC(N)=O)NC(=O)[C@H](CO)NC(=O)CNC(=O)[C@H](Cc1ccc(O)cc1)NC(=O)[C@H](CC(=O)O)NC(=O)CNC(=O)[C@H](Cc1ccc(O)cc1)NC(=O)[C@H](Cc1ccccc1)NC(=O)[C@@H]1CCCN1C(=O)[C@H](Cc1ccccc1)NC(=O)[C@H](CCC(=O)O)NC(=O)[C@H](CCCNC(=N)N)NC(=O)[C@H](Cc1c[nH]cn1)NC(=O)[C@H](CO)NC(=O)[C@H](Cc1c[nH]cn1)NC(=O)[C@H](Cc1c[nH]cn1)NC(=O)[C@H](CCCCN)NC(=O)[C@H](CCC(=O)O)NC(=O)[C@H](Cc1c[nH]cn1)NC(=O)[C@H](Cc1ccccc1)NC(=O)[C@H](CCCCN)NC(=O)[C@@H](N)CCCNC(=N)N)C(=O)N[C@@H](Cc1ccc(O)cc1)C(=O)N[C@@H](CC(=O)O)C(=O)N[C@@H](CC(N)=O)C(=O)O [Histatin 2]	induce wound closure	EGFR independent induced wound closure	not p38^MAPK but appears ERK1/2 dependent	5 to 10	–
C[C@H](NC(=O)[C@H](Cc1cnc[nH]1)NC(=O)[C@H](CO)NC(=O)[C@@H](N)CC(=O)O)C(=O)N[C@@H](CCCCN)C(=O)N[C@@H](CCCNC(=N)N)C(=O)N[C@@H](Cc1cnc[nH]1)C(=O)N[C@@H](Cc1cnc[nH]1)C(=O)NCC(=O)N[C@@H](Cc1ccc(O)cc1)C(=O)N[C@@H](CCCCN)C(=O)N[C@@H](CCCNC(=N)N)C(=O)N[C@@H](CCCCN)C(=O)N[C@@H](Cc1ccccc1)C(=O)N[C@@H](Cc1cnc[nH]1)C(=O)N[C@@H](CCC(=O)O)C(=O)N[C@@H](CCCCN)C(=O)N[C@@H](Cc1cnc[nH]1)C(=O)N[C@@H](Cc1cnc[nH]1)C(=O)N[C@@H](CO)C(=O)N[C@@H](Cc1cnc[nH]1)C(=O)N[C@@H](CCCNC(=N)N)C(=O)NCC(=O)N[C@@H](Cc1ccc(O)cc1)C(=O)O [Histatin 5, reference compound]	do not; also recorded: does not show induced wound closure	–	–	–	–
DSHEKRHHGYRRKFHEKHHSHREFPFYGDYGSNYLYDN [Histatin 1]	induce wound closure	–	–	–	above 1
